Source: paper PMC8717606
These are yes or no findings as the source states them, for the method shown. In cells and extracts the contact can be indirect. A result given as binding can be weak or reduced; the word gives no strength.

Chains of the proteins cited; added tags and fusions are not shown. Lines headed by an entry give the natural chain unless they say otherwise; changes in a name come on top.
UniProt P24001: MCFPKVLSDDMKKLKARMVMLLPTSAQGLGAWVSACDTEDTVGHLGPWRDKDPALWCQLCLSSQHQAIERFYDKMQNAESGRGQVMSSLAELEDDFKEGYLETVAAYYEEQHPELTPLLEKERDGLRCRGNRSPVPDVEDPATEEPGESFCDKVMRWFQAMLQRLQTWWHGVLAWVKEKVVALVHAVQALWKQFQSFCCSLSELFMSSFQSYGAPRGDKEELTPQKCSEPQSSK
UniProt Q9UI09: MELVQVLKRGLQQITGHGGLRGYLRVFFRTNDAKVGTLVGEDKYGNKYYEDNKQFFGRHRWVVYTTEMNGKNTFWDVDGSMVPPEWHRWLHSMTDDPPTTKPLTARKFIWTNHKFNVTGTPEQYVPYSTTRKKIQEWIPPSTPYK

Target: Interleukin 32 (IL32) (Homo sapiens) (UniProt P24001)
Assay: co-IP; endogenous IL-32 pulled down by the same protocol in INA-6, H929 and JJN-3 cells; ATP5D and NDUFA12 detected by western blotting

binding: binds
Substance: NADH:ubiquinone oxidoreductase subunit A12 (NDUFA12) (from UniProt Q9UI09 1-145)
